Reference: PubChem BioAssay AID188 (DTP/NCI, 2004)
Values are animals surviving of animals treated; these mice carried no tumour. Survivors were counted at the toxicity check, usually on the fifth day, unless a day is given; later deaths do not show. Schedules are NCI's codes, taken here to give the interval after Q, in days (D) or hours (H), and the number of doses after X.

Test system: CD2F1 mice, nontumored, toxicity/survival
Assay: NCI In Vivo Anticancer Drug Screen. Data for tumor model Nontumored Animals (Toxicity Test) in CD2F1 (CDF1) mice

CNc1nc(N(C)C)nc(N(C)C)n1 was tested, and the survivor count (dose: 16.0 mg/kg/injection, schedule: Q03HX008 (ip), vehicle: water) was 8 of 8, the survivor count (dose: 16.0 mg/kg/injection, schedule: Q03HX016 (ip), vehicle: water) was 8 of 8 and the survivor count (dose: 16.0 mg/kg/injection, schedule: Q03HX024 (ip), vehicle: water) was 8 of 8. For the same molecule, the survivor count (dose: 32.0 mg/kg/injection, schedule: Q01DX005 (ip), vehicle: water) was 8 of 8, the survivor count (dose: 32.0 mg/kg/injection, schedule: Q01DX005 (iv), vehicle: water) was 1 of 8 and the survivor count (dose: 32.0 mg/kg/injection, schedule: Q01DX009 (ip), vehicle: water) was 8 of 8. The survivor count (dose: 32.0 mg/kg/injection, schedule: Q01DX009 (oral), vehicle: water) was 8 of 8, the survivor count (dose: 32.0 mg/kg/injection, schedule: Q01DX009 (sc), vehicle: water) was 8 of 8 and the survivor count (dose: 32.0 mg/kg/injection, schedule: Q03HX008 (ip), vehicle: water) was 8 of 8. For the same molecule, the survivor count (dose: 32.0 mg/kg/injection, schedule: Q03HX016 (ip), vehicle: water) was 8 of 8, the survivor count (dose: 32.0 mg/kg/injection, schedule: Q03HX024 (ip), vehicle: water) was 8 of 8 and the survivor count (dose: 64.0 mg/kg/injection, schedule: Q01DX001 (ip), vehicle: water) was 8 of 8. For the same molecule, the survivor count (dose: 64.0 mg/kg/injection, schedule: Q01DX001 (oral), vehicle: water) was 8 of 8, the survivor count (dose: 64.0 mg/kg/injection, schedule: Q01DX005 (ip), vehicle: water) was 8 of 8 and the survivor count (dose: 64.0 mg/kg/injection, schedule: Q01DX005 (iv), vehicle: water) was 2 of 8. The survivor count (dose: 64.0 mg/kg/injection, schedule: Q01DX009 (ip), vehicle: water) was 8 of 8, the survivor count (dose: 64.0 mg/kg/injection, schedule: Q01DX009 (oral), vehicle: water) was 8 of 8 and the survivor count (dose: 64.0 mg/kg/injection, schedule: Q01DX009 (sc), vehicle: water) was 8 of 8. For the same molecule, the survivor count (dose: 64.0 mg/kg/injection, schedule: Q03HX008 (ip), vehicle: water) was 8 of 8, the survivor count (dose: 64.0 mg/kg/injection, schedule: Q03HX016 (ip), vehicle: water) was 8 of 8 and the survivor count (dose: 64.0 mg/kg/injection, schedule: Q03HX024 (ip), vehicle: water) was 8 of 8. The survivor count (dose: 64.0 mg/kg/injection, schedule: Q04DX003 (ip), vehicle: water) was 8 of 8, the survivor count (dose: 64.0 mg/kg/injection, schedule: Q08DX002 (ip), vehicle: water) was 8 of 8 and the survivor count (dose: 128.0 mg/kg/injection, schedule: Q01DX001 (ip), vehicle: water) was 8 of 8. The survivor count (dose: 128.0 mg/kg/injection, schedule: Q01DX001 (oral), vehicle: water) was 8 of 8, the survivor count (dose: 128.0 mg/kg/injection, schedule: Q01DX005 (ip), vehicle: water) was 8 of 8 and the survivor count (dose: 128.0 mg/kg/injection, schedule: Q01DX005 (iv), vehicle: water) was 1 of 8. For the same molecule, the survivor count (dose: 128.0 mg/kg/injection, schedule: Q01DX009 (ip), vehicle: water) was 7 of 8, the survivor count (dose: 128.0 mg/kg/injection, schedule: Q01DX009 (oral), vehicle: water) was 8 of 8 and the survivor count (dose: 128.0 mg/kg/injection, schedule: Q01DX009 (sc), vehicle: water) was 8 of 8. The survivor count (dose: 128.0 mg/kg/injection, schedule: Q03HX008 (ip), vehicle: water) was 7 of 8, the survivor count (dose: 128.0 mg/kg/injection, schedule: Q03HX016 (ip), vehicle: water) was 6 of 8 and the survivor count (dose: 128.0 mg/kg/injection, schedule: Q03HX024 (ip), vehicle: water) was 7 of 8. The survivor count (dose: 128.0 mg/kg/injection, schedule: Q04DX003 (ip), vehicle: water) was 8 of 8, the survivor count (dose: 128.0 mg/kg/injection, schedule: Q08DX002 (ip), vehicle: water) was 8 of 8 and the survivor count (dose: 256.0 mg/kg/injection, schedule: Q01DX001 (ip), vehicle: water) was 8 of 8. The survivor count (dose: 256.0 mg/kg/injection, schedule: Q01DX001 (oral), vehicle: water) was 8 of 8, the survivor count (dose: 256.0 mg/kg/injection, schedule: Q01DX005 (ip), vehicle: water) was 5 of 8 and the survivor count (dose: 256.0 mg/kg/injection, schedule: Q01DX005 (iv), vehicle: water) was 0 of 8. For the same molecule, the survivor count (dose: 256.0 mg/kg/injection, schedule: Q01DX009 (ip), vehicle: water) was 7 of 8, the survivor count (dose: 256.0 mg/kg/injection, schedule: Q01DX009 (oral), vehicle: water) was 8 of 8 and the survivor count (dose: 256.0 mg/kg/injection, schedule: Q01DX009 (sc), vehicle: water) was 7 of 8. The survivor count (dose: 256.0 mg/kg/injection, schedule: Q04DX003 (ip), vehicle: water) was 8 of 8, the survivor count (dose: 256.0 mg/kg/injection, schedule: Q08DX002 (ip), vehicle: water) was 8 of 8 and the survivor count (dose: 512.0 mg/kg/injection, schedule: Q01DX001 (ip), vehicle: water) was 6 of 8. The survivor count (dose: 512.0 mg/kg/injection, schedule: Q01DX001 (oral), vehicle: water) was 8 of 8, the survivor count (dose: 512.0 mg/kg/injection, schedule: Q04DX003 (ip), vehicle: water) was 3 of 8 and the survivor count (dose: 512.0 mg/kg/injection, schedule: Q08DX002 (ip), vehicle: water) was 2 of 8.
In the case of Cn1cnc([N+](=O)[O-])c1Sc1ncnc2nc[nH]c12, the survivor count (dose: 50.0 mg/kg/injection, schedule: Q01DX001 (ip), vehicle: saline with Tween-80) is reported as 3 of 3, the survivor count (dose: 50.0 mg/kg/injection, schedule: Q01DX005 (ip), vehicle: saline with Tween-80) is reported as 3 of 3 and the survivor count (dose: 100.0 mg/kg/injection, schedule: Q01DX001 (ip), vehicle: saline with Tween-80) is reported as 3 of 3. For the same molecule, the survivor count (dose: 100.0 mg/kg/injection, schedule: Q01DX005 (ip), vehicle: saline with Tween-80) was 3 of 3, the survivor count (dose: 200.0 mg/kg/injection, schedule: Q01DX001 (ip), vehicle: saline with Tween-80) was 3 of 3 and the survivor count (dose: 200.0 mg/kg/injection, schedule: Q01DX005 (ip), vehicle: saline with Tween-80) was 3 of 3. For the same molecule, the survivor count (dose: 360.0 mg/kg/injection, schedule: Q01DX001 (ip), vehicle: saline with Tween-80) was 3 of 3, the survivor count (dose: 400.0 mg/kg/injection, schedule: Q01DX001 (ip), vehicle: saline with Tween-80) was 3 of 3 and the survivor count (dose: 400.0 mg/kg/injection, schedule: Q01DX005 (ip), vehicle: saline with Tween-80) was 1 of 3. For the same molecule, the survivor count (dose: 600.0 mg/kg/injection, schedule: Q01DX001 (ip), vehicle: saline with Tween-80) was 3 of 3 and the survivor count (dose: 1000.0 mg/kg/injection, schedule: Q01DX001 (ip), vehicle: saline with Tween-80) was 0 of 3.
